Data as given in patent publication US11485769B2, “Peptides and combination of peptides for use in immunotherapy and methods for generating scaffolds for the use against pancreatic cancer and other cancers” (Immatics Biotechnologies GmbH, priority 2015, dated 2022).

Tested on: tumors compared to a panel of normal tissues
Assay: Identification and label-free LC-MS quantitation of HLA-presented tumor associated peptides (presentation profiles/scores)
Design: species or system human; key to Peptide Presentation (presentation score): very highly over-presented on tumors compared to a panel of normal tissues (+++); highly over-presented on tumors compared to a panel of normal tissues (++); over-presented on tumors compared to a panel of normal tissues (+)
Details: for Peptide Presentation (presentation score): over-presentation on tumors compared to a panel of normal tissues, label-free LC-MS quantitation of HLA peptides

Substance: 68 (VLFDVTGQV; listed as Homo sapiens) [compound 68]
- Peptide Presentation (presentation score): +++

Substance: 42 (ILSDMRSQYEV; listed as Homo sapiens) [compound 42]
- Peptide Presentation (presentation score): +++

Substance: 133 (ILDDVSLTHL; listed as Homo sapiens) [compound 133]
- Peptide Presentation (presentation score): +++

Substance: 77 (RLFPGSSFL; listed as Homo sapiens) [compound 77]
- Peptide Presentation (presentation score): +++

Substance: 72 (VMASPGGLSAV; listed as Homo sapiens) [compound 72]
- Peptide Presentation (presentation score): +++

Substance: 41 (GLLAGNEKLTM; listed as Homo sapiens) [compound 41]
- Peptide Presentation (presentation score): ++

Substance: 18 (ALFVRLLAL; listed as Homo sapiens) [compound 18]
- Peptide Presentation (presentation score): +++

Substance: 114 (SLFPHNPQFI; listed as Homo sapiens) [compound 114]
- Peptide Presentation (presentation score): +++

Substance: 40 (GLAPQIHDL; listed as Homo sapiens) [compound 40]
- Peptide Presentation (presentation score): +++

Substance: 48 (LLDENGVLKL; listed as Homo sapiens) [compound 48]
- Peptide Presentation (presentation score): +++

Substance: 101 (ALVEENGIFEL; listed as Homo sapiens) [compound 101]
- peptide additionally found on bile duct cancers (positive/measured samples) (bile duct cancers): 1/17
- peptide additionally detected on breast cancers (positive/measured samples): 2/18
- peptide additionally found on colon or rectum cancers (positive/measured samples): 2/29
- peptide additionally detected on esophageal cancers (positive/measured samples): 2/18
- peptide additionally found on head and neck cancers (positive/measured samples): 2/8
- peptide additionally detected on liver cancers (positive/measured samples): 1/21
- peptide additionally detected on lung cancers (positive/measured samples): 7/107
- peptide additionally detected on ovarian cancers (positive/measured samples): 6/20
- peptide additionally detected on prostate cancers (positive/measured samples): 3/87
- peptide additionally detected on urinary bladder cancers (positive/measured samples): 4/15
- peptide additionally found on uterus cancers (positive/measured samples): 1/16

Substance: 29 (YILPFSEVL; listed as Homo sapiens) [compound 29]
- Peptide Presentation (presentation score): +++

Substance: 62 (SVFPGARLL; listed as Homo sapiens) [compound 62]
- Peptide Presentation (presentation score): +++

Substance: 102 (ALYPGTDYTV; listed as Homo sapiens) [compound 102]
- Peptide Presentation (presentation score): +

Substance: 52 (LLSDPIPEV; listed as Homo sapiens) [compound 52]
- Peptide Presentation (presentation score): ++

Substance: 46 (TMVEHNYYV; listed as Homo sapiens) [compound 46]
- peptide additionally detected on esophageal cancers (positive/measured samples): 1/18
- peptide additionally found on gallbladder cancers (positive/measured samples) (gallbladder cancers): 1/17
- peptide additionally found on head and neck cancers (positive/measured samples): 1/8
- peptide additionally detected on kidney cancers (positive/measured samples): 3/23
- peptide additionally detected on lung cancers (positive/measured samples): 9/107
- peptide additionally detected on ovarian cancers (positive/measured samples): 7/20
- Peptide Presentation (presentation score): +++
- peptide additionally found on pancreas cancers (positive/measured samples) (pancreas cancers): 1/19
- peptide additionally found on skin cancers (positive/measured samples): 1/18
- peptide additionally detected on stomach cancers (positive/measured samples): 1/45
- peptide additionally detected on urinary bladder cancers (positive/measured samples): 2/15
- peptide additionally found on uterus cancers (positive/measured samples): 1/16

Substance: 155 (LLLDPDTAVLKL; listed as Homo sapiens) [compound 155]
- Peptide Presentation (presentation score): ++

Substance: 107 (FVYGGPQVQL; listed as Homo sapiens) [compound 107]
- Peptide Presentation (presentation score): +

Substance: 35 (FLFPSQYVDV; listed as Homo sapiens) [compound 35]
- Peptide Presentation (presentation score): +++

Substance: 45 (ILYSDDGQKWTV; listed as Homo sapiens) [compound 45]
- Peptide Presentation (presentation score): +++

Substance: 169 (FMLPDPQNI; listed as Homo sapiens) [compound 169]
- Peptide Presentation (presentation score): +++

Substance: 90 (KLLTPITTL; listed as Homo sapiens) [compound 90]
- Peptide Presentation (presentation score): +

Substance: 142 (SLYGYLRGA; listed as Homo sapiens) [compound 142]
- Peptide Presentation (presentation score): +++

Substance: 131 (FLIEEQKIVV; listed as Homo sapiens) [compound 131]
- Peptide Presentation (presentation score): +++

Substance: 151 (ALLDIIRSL; listed as Homo sapiens) [compound 151]
- Peptide Presentation (presentation score): +++

Substance: 138 (NIFPNPEATFV; listed as Homo sapiens) [compound 138]
- Peptide Presentation (presentation score): ++

Substance: 17 (GLIDYDTGIRL; listed as Homo sapiens) [compound 17]
- Peptide Presentation (presentation score): ++

Substance: 171 (LLLDVTPLSL; listed as Homo sapiens) [compound 171]
- Peptide Presentation (presentation score): ++

Substance: 159 (SLLDLHTKV; listed as Homo sapiens) [compound 159]
- Peptide Presentation (presentation score): +

Substance: 134 (ILLAEGRLVNL; listed as Homo sapiens) [compound 134]
- Peptide Presentation (presentation score): +++

Substance: 30 (YIYKDTIQV; listed as Homo sapiens) [compound 30]
- Peptide Presentation (presentation score): +++

Substance: 1 (FVDTRTLL; listed as Homo sapiens) [compound 1]
- peptide additionally detected on esophageal cancers (positive/measured samples): 1/17
- peptide additionally detected on lung cancers (positive/measured samples): 3/91
- Peptide Presentation (presentation score): +++

Substance: 147 (YAFPKAVSV; listed as Homo sapiens) [compound 147]
- Peptide Presentation (presentation score): +++

Substance: 104 (FLQPDLDSL; listed as Homo sapiens) [compound 104]
- Peptide Presentation (presentation score): +++

Substance: 54 (LTQPGPIASA; listed as Homo sapiens) [compound 54]
- Peptide Presentation (presentation score): +++

Substance: 176 (YLMPGFIHL; listed as Homo sapiens) [compound 176]
- Peptide Presentation (presentation score): +++

Substance: 127 (ALSDLALHFL; listed as Homo sapiens) [compound 127]
- peptide additionally detected on brain cancers (positive/measured samples): 1/34
- peptide additionally detected on breast cancers (positive/measured samples): 2/18
- peptide additionally found on head and neck cancers (positive/measured samples): 2/8
- peptide additionally found on leukocytic leukemia cancers (positive/measured samples): 3/17
- peptide additionally detected on liver cancers (positive/measured samples): 1/21
- peptide additionally detected on lung cancers (positive/measured samples): 3/107
- peptide additionally found on lymph node cancers (positive/measured samples): 4/20
- peptide additionally found on myeloid cell cancers (positive/measured samples): 2/18
- peptide additionally detected on ovarian cancers (positive/measured samples): 1/20
- peptide additionally found on skin cancers (positive/measured samples): 3/18
- peptide additionally detected on urinary bladder cancers (positive/measured samples): 4/15

Substance: 73 (VMVDGKPVNL; listed as Homo sapiens) [compound 73]
- Peptide Presentation (presentation score): +

Substance: 64 (TLFSEPKFAQV; listed as Homo sapiens) [compound 64]
- Peptide Presentation (presentation score): ++

Substance: 130 (FLFGEEPSKL; listed as Homo sapiens) [compound 130]
- Peptide Presentation (presentation score): +

Substance: 123 (KISTITPQI; listed as Homo sapiens) [compound 123]
- peptide additionally detected on brain cancers (positive/measured samples): 2/34
- peptide additionally found on head and neck cancers (positive/measured samples): 2/8
- peptide additionally detected on kidney cancers (positive/measured samples): 1/23
- peptide additionally found on leukocytic leukemia cancers (positive/measured samples): 1/17
- peptide additionally detected on liver cancers (positive/measured samples): 2/21
- peptide additionally detected on lung cancers (positive/measured samples): 7/107
- peptide additionally found on lymph node cancers (positive/measured samples): 2/20
- peptide additionally found on myeloid cell cancers (positive/measured samples): 1/18
- Peptide Presentation (presentation score): +++
- peptide additionally found on skin cancers (positive/measured samples): 1/18
- peptide additionally detected on stomach cancers (positive/measured samples): 1/45
- peptide additionally detected on urinary bladder cancers (positive/measured samples): 2/15
- peptide additionally found on uterus cancers (positive/measured samples): 3/16

Substance: 146 (VLISGVVHEI; listed as Homo sapiens) [compound 146]
- peptide additionally detected on brain cancers (positive/measured samples): 7/34
- peptide additionally detected on breast cancers (positive/measured samples): 1/18
- peptide additionally found on colon or rectum cancers (positive/measured samples): 2/29
- peptide additionally detected on esophageal cancers (positive/measured samples): 1/18
- peptide additionally detected on kidney cancers (positive/measured samples): 1/23
- peptide additionally detected on liver cancers (positive/measured samples): 3/21
- peptide additionally detected on lung cancers (positive/measured samples): 5/107
- peptide additionally found on lymph node cancers (positive/measured samples): 1/20
- peptide additionally detected on ovarian cancers (positive/measured samples): 2/20
- Peptide Presentation (presentation score): +++
- peptide additionally detected on prostate cancers (positive/measured samples): 1/87
- peptide additionally found on skin cancers (positive/measured samples): 3/18
- peptide additionally found on uterus cancers (positive/measured samples): 1/16

Substance: 124 (ALFEESGLIRI; listed as Homo sapiens) [compound 124]
- Peptide Presentation (presentation score): +++

Substance: 16 (GLIDYDTGI; listed as Homo sapiens) [compound 16]
- Peptide Presentation (presentation score): +++

Substance: 3 (ILIGETIKI; listed as Homo sapiens) [compound 3]
- peptide additionally detected on colorectal cancers (positive/measured samples) (colorectal cancers): 1/24
- peptide additionally detected on kidney cancers (positive/measured samples): 1/18
- peptide additionally detected on lung cancers (positive/measured samples): 4/91
- peptide additionally detected on ovarian cancers (positive/measured samples): 1/20
- Peptide Presentation (presentation score): +++
- peptide additionally detected on urinary bladder cancers (positive/measured samples): 1/4

Substance: 25 (LINPNIATV; listed as Homo sapiens) [compound 25]
- Peptide Presentation (presentation score): +++

Substance: 109 (ILASVILNV; listed as Homo sapiens) [compound 109]
- Peptide Presentation (presentation score): ++

Substance: 154 (KVADLVLML; listed as Homo sapiens) [compound 154]
- Peptide Presentation (presentation score): +

Substance: 59 (SLSESFFMV; listed as Homo sapiens) [compound 59]
- Peptide Presentation (presentation score): +

Substance: 144 (TAVALLRLL; listed as Homo sapiens) [compound 144]
- Peptide Presentation (presentation score): +++

Substance: 85 (FLSDGTIISV; listed as Homo sapiens) [compound 85]
- Peptide Presentation (presentation score): ++
